Data reported in patent US11179412B2, “Methods of treating conditions involving elevated inflammatory response” (University of Pittsburgh—Of the Commonwealth System of …, priority 2017, dated 2021).
At least one compound was matched to its structure with a doubt left.

Key:
[1] = test system: STING activation (IFNβ release) in THP1 cells; assay: IFNβ release ELISA, THP1 cells; format: cell-based, human; details: STING ligands 10 μg/ml, inhibitor 10 μM, 16 hours
Description: (§1) Macrophages or monocytes were treated with 3′3′-cGAMP (10 μg/ml, Invitrogen) for 16 hours in the absence or presence of one compound (10 μM) from the Target-selective Inhibitory Library (#L3500, Selleck Chemicals). Commercially available enzyme-linked immunosorbent assay (ELISA) kits were used to measure the concentrations of mouse IFNβ (Thermo Fisher Scientific) or human IFNβ (Thermo Fisher Scientific) in culture medium according to the manufacturer's instructions.

[2] = test system: STING activation (IFNβ release) in iBMDMs; assay: IFNβ release ELISA after STING ligand (or LPS) stimulation, iBMDMs; format: cell-based, mouse; details: 16 hours
Description: Commercially available enzyme-linked immunosorbent assay (ELISA) kits were used to measure the concentrations of mouse IFNβ (Thermo Fisher Scientific) or human IFNβ (Thermo Fisher Scientific) in culture medium according to the manufacturer's instructions. […]

IFNβ mRNA in THP1 cells = assay: IFNβ mRNA Q-PCR, THP1 cells; format: cell-based, human; details: STING ligands 10 μg/ml, inhibitor 10 μM, 16 hours
Description: (§2) Total RNA was extracted using QIAGEN RNeasy Plus Kit according to the manufacturer's instructions. First-strand cDNA was synthesized from 1 μg of RNA using the iScript cDNA Synthesis kit (#1708890, Bio-Rad). Briefly, 20 μl reactions were prepared by combining 4 μl iScript Select reaction mix, 2 μl gene-specific enhancer solution, 1 μl reverse transcriptase, 1 μl gene-specific assay pool (20×, 2 μM), and 12 μl RNA diluted in RNase-free water. Quantitative real-time PCR was carried out using synthesized cDNA, primers, and SsoFast EvaGreen Supermix (#172-5204, Bio-Rad). The expression of target genes was calculated using the ddCt method relative to the expression of a house-keeping gene, β-actin. Data shown are the relative quantity (RQ), with RQ of the control cells set to one.

[3] = test system: IFNβ mRNA in RAW264.7 cells; assay: IFNβ mRNA Q-PCR, RAW264.7 cells; format: cell-based, mouse; details: STING ligands 10 μg/ml, inhibitor 10 μM, 16 hours
Description: as §2

[4] = test system: STING activation (IFNβ release) in RAW264.7 cells; assay: IFNβ release ELISA, RAW264.7 cells; format: cell-based, mouse; details: STING ligands 10 μg/ml, inhibitor 10 μM, 16 hours
Description: as §1

[5] = test system: STING activation (IFNβ release) in pPMs; assay: IFNβ release ELISA, primary peritoneal macrophages (pPMs); format: cell-based, mouse; details: STING ligands 10 μg/ml, inhibitor 10 μM, 16 hours
Description: Mouse pPMs were isolated from C57BL/6J mice as previously described (69). In brief, eight-week-old female or male C57BL/6J mice were injected with 3.0% thioglycollate medium (2 mL/mouse) into the peritoneum. Three days after injection, mice were sacrificed and injected with 3 mL of 0.05% EDTA-PBS into the peritoneum to harvest peritoneal macrophages. Collected cells were centrifuged at 1000 rpm for 5 min at 4° C., and the cell pellet was washed with PBS and centrifuged again. The cell pellet was then suspended in Dulbecco's Modified Eagle Medium supplemented with 10% FBS and 1× Penicillin-Streptomycin and cultured in a culture dish.
as §1

IFNβ mRNA in pPMs = assay: IFNβ mRNA Q-PCR, pPMs; format: cell-based, mouse; details: STING ligands 10 μg/ml, inhibitor 10 μM, 16 hours
Description: as §2

[6] = test system: STING signaling (TBK1, IRF3, p65 phosphorylation) in J774A.1 cells; assay: Western blot of STING pathway protein phosphorylation, J774A.1; format: cell-based, mouse; details: 10 μM
Description: For immunoblotting, cells were lysed in Cell Lysis Buffer (#9803, Cell Signaling Technology) with protease inhibitor cocktail (Promega), phosphatase inhibitor cocktail (Sigma), and 1 mM Na3VO4 (70). Cleared lysates were resolved by SDS-PAGE (#3450124, Bio-Rad) and then transferred onto PVDF membranes (#1704273, Bio-Rad). The membranes were blocked with Tris-buffered saline Tween 20 (TBST) containing 5% skim milk for 1 h at room temperature and then incubated with the indicated primary antibodies (1:1000-1:5000) overnight at 4° C. After being washed with TBST, the membranes were incubated with an HRP-linked anti-mouse IgG secondary antibody (#7076, Cell Signaling Technology) or HRP-linked anti-rabbit IgG secondary antibody (#7074, Cell Signaling Technology) for 1 h at room temperature. The membranes were washed three times in TBST and then visualized and analyzed with a ChemiDoc Touch Imaging System (#1708370, Bio-Rad). The intensities of bands were analyzed with Image Lab software.

IFNβ mRNA in iBMDMs = assay: IFNβ mRNA Q-PCR, iBMDMs; format: cell-based, mouse; details: STING ligands 10 μg/ml, inhibitor 10 μM, 16 hours
Description: as §2

[7] = test system: IFNβ mRNA in J774A.1 cells; assay: IFNβ mRNA Q-PCR, J774A.1 cells; format: cell-based, mouse; details: STING ligands 10 μg/ml, inhibitor 10 μM, 16 hours
Description: as §2

[8] = test system: STING activation (IFNβ release) in J774A.1 cells; assay: IFNβ release ELISA, J774A.1 cells; format: cell-based, mouse; details: STING ligands 10 μg/ml, inhibitor 10 μM, 16 hours
Description: as §1

In the case of `COc1cc(N2CCC(N3CCN(C)CC3)CC2)ccc1Nc1ncc(Cl)c(Nc2ccccc2P(C)(C)=O)n1` [AP26113], the “IFNβ release induced by STING ligands” value [1] was “inhibited”, the “3′3′-cGAMP-induced IFNβ release” value ([2]; 3′3′-cGAMP 10 μg/ml, compound 10 μM) was “diminished” and the “IFNβ release induced by STING ligands” value ([2]; STING ligands 10 μg/ml, inhibitor 10 μM) was “inhibited”. For the same compound, the “STING ligand-induced IFNβ mRNA expression” value (IFNβ mRNA in THP1 cells) was “attenuation”, the “STING ligand-induced IFNβ mRNA expression” value [3] was “attenuation” and the “IFNβ release induced by STING ligands” value [4] was “inhibited”. The “IFNβ release induced by STING ligands” value [5] was “inhibited”, the “STING ligand-induced IFNβ mRNA expression” value (IFNβ mRNA in pPMs) was “attenuation” and the “3′3′-cGAMP-induced p-TBK1” value ([6]; 3′3′-cGAMP 10 μg/ml, three to 16 hours) was “time-dependently reduced”. The “3′3′-cGAMP-, c-di-AMP-, and DMXAA-induced p-IRF3 and p-p65” value ([6]; ligand 10 μg/ml) was “inhibited”, the “c-di-AMP- or DMXAA-induced p-TBK1” value ([6]; ligand 10 μg/ml, 16 hours) was “inhibited” and the “STING ligand-induced IFNβ mRNA expression” value (IFNβ mRNA in iBMDMs) was “attenuation”. The “STING ligand-induced IFNβ mRNA expression” value [7] was “attenuation” and the “IFNβ release induced by STING ligands” value [8] was “inhibited”.
